Experimental data as given in publication PMC2841635.
No constants are given. Whether binding was seen depends on the method and setting. In cells and extracts the contact can be indirect. Binding calls can cover weak binding; strength is not graded here. Tags and fused reporters may be left off the sequences shown.

Molecular target: T1, activated Ack1, caAck (L487F mutant), myc-tagged (UniProt Q07912)
T1 sequence: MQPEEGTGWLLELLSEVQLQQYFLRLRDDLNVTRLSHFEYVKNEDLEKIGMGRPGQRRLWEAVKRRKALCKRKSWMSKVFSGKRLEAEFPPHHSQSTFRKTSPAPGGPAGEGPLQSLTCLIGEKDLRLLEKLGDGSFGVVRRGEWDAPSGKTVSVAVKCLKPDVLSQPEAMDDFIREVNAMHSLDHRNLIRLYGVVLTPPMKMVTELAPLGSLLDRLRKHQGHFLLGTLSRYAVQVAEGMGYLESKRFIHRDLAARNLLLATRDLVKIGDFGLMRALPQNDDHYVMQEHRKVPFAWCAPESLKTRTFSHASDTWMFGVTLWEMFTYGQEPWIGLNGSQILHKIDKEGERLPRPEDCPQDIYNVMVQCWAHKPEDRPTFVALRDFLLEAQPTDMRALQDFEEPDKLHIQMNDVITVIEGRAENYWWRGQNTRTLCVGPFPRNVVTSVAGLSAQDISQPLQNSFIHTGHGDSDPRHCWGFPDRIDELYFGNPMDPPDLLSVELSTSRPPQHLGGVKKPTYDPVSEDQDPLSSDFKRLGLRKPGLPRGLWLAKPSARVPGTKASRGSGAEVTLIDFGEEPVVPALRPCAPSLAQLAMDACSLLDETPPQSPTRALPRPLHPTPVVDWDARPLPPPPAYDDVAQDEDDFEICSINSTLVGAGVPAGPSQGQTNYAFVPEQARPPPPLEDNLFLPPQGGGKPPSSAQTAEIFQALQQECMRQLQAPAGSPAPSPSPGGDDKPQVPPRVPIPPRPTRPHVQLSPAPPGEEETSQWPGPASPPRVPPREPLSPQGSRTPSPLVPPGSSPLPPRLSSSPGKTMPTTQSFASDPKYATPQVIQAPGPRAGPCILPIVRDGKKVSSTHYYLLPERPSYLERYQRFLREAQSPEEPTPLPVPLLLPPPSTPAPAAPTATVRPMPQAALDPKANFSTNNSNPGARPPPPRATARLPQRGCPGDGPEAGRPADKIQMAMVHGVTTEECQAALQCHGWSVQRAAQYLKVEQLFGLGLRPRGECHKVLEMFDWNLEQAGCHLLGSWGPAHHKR
Assay: co-IP; HEK293 cells co-transfected with HA-tagged AKT deletions and myc-tagged caAck; IP with Myc antibodies, IB with HA antibodies

“HA-tagged AKT deletion construct lacking the PH domain (ΔPH-AKT) (domain or fragment)” was tested, and the binding was “binds weakly”.
In the case of “HA-tagged AKT lacking carboxy terminus (ΔCT-AKT) (domain or fragment)”, the binding is reported as “binds”.
